For one assay, the target named is DMPK (Homo sapiens, UniProt Q09013). As to conditions: 1 μM; Run 1, Run 2.
The target of the next assay is FGFR2 (Homo sapiens, UniProt P21802). The assay is described as follows: biochemical. As to conditions: read-out: % enzyme activity, 1 μM; Run 1, Run 2.
The target of the next assay is IKKb/IKBKB (Homo sapiens, UniProt O14920). The conditions noted are these: 1 μM; Run 1, Run 2.
For another assay, the target named is AKT3 (Homo sapiens, UniProt Q9Y243). As to the kind of experiment: biochemical. The conditions noted are these: read-out: % enzyme activity, 1 μM; Run 1, Run 2.
In another assay the target is CDK3/cyclin E2 (Homo sapiens, UniProt Q00526). As to the kind of experiment: biochemical. As to conditions: read-out: % enzyme activity, 1 μM; Run 1, Run 2.
The next assay concerns the target PKG2/PRKG2 (Homo sapiens, UniProt Q13237). The assay is described as follows: biochemical. As to conditions: read-out: % enzyme activity, 1 μM; Run 1, Run 2.
In a further assay the target is SGK3/SGKL (Homo sapiens, UniProt Q96BR1). As to the kind of experiment: biochemical. As to conditions: read-out: % enzyme activity, 1 μM; Run 1, Run 2.
In the next assay the target is WNK2 (Homo sapiens, UniProt Q9Y3S1). As to the kind of experiment: biochemical. As to conditions: read-out: % enzyme activity, 1 μM; Run 1, Run 2.
The target in a further assay is PKCb2 (Homo sapiens, UniProt P05771). As to conditions: 1 μM; Run 1, Run 2.
The target of the next assay is CDK9/cyclin T2 (Homo sapiens, UniProt P50750). As to the kind of experiment: biochemical. As to conditions: read-out: % enzyme activity, 1 μM; Run 1, Run 2.
In a further assay the target is MUSK (Homo sapiens, UniProt O15146). As to conditions: 1 μM; Run 1, Run 2.
In the next assay the target is CAMK4 (Homo sapiens, UniProt Q16566). As to the kind of experiment: biochemical. The conditions noted are these: read-out: % enzyme activity, 1 μM; Run 1, Run 2.

The chains behind the UniProt entries cited, without tags or fusion partners. Where a name states a change or a piece, a line headed by the entry shows the natural chain unless it says otherwise. Residues count along the entry.
UniProt P21802, 22-821: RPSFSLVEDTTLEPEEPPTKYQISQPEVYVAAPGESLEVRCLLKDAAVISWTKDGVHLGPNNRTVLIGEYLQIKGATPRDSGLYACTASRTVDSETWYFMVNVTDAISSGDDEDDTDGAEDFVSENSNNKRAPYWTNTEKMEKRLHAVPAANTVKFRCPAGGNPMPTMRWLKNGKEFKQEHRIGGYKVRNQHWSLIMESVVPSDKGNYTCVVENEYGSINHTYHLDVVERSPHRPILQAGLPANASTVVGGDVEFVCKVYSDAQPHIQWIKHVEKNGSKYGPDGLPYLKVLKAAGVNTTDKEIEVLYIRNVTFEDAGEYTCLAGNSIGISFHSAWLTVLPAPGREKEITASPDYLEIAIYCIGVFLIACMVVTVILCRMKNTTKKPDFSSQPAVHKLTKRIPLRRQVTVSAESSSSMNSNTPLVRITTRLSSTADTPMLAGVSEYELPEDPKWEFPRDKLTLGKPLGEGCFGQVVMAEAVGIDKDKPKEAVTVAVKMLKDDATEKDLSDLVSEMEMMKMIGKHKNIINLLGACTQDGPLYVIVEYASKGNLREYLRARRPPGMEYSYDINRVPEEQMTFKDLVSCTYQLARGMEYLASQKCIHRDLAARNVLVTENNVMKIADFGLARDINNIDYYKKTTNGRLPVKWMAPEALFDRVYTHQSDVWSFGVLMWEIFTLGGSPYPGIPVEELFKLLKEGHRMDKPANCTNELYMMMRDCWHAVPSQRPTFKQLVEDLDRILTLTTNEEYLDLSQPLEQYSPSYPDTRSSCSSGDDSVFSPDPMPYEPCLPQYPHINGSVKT
UniProt Q00526: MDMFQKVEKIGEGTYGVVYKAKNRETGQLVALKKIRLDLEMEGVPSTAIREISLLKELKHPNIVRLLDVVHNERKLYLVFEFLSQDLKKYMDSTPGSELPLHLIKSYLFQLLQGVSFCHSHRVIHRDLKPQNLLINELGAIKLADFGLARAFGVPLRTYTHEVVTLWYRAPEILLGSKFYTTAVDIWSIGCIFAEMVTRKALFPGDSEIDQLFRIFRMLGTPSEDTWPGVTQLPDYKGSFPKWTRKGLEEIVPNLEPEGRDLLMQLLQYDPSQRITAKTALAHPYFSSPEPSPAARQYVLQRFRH
UniProt Q13237: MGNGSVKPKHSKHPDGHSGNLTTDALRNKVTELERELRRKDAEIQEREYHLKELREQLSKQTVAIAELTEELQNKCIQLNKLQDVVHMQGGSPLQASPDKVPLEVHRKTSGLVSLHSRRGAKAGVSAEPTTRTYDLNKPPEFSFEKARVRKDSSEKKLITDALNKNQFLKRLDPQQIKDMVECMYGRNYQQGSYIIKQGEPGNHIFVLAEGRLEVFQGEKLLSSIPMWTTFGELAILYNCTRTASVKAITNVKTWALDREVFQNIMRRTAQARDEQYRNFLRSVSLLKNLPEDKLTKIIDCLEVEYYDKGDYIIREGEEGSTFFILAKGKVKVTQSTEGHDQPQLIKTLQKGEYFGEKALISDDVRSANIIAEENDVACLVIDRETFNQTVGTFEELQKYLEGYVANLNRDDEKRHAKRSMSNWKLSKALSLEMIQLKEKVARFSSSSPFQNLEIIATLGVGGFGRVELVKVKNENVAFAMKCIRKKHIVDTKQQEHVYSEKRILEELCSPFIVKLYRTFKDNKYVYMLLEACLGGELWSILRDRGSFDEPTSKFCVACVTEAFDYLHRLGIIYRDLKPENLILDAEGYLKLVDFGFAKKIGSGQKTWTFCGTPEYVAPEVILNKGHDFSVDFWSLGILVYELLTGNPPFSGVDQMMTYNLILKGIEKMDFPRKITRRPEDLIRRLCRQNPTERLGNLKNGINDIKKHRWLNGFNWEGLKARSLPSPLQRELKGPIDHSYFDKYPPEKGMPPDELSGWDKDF
UniProt Q9Y3S1, whole entry, species assumed: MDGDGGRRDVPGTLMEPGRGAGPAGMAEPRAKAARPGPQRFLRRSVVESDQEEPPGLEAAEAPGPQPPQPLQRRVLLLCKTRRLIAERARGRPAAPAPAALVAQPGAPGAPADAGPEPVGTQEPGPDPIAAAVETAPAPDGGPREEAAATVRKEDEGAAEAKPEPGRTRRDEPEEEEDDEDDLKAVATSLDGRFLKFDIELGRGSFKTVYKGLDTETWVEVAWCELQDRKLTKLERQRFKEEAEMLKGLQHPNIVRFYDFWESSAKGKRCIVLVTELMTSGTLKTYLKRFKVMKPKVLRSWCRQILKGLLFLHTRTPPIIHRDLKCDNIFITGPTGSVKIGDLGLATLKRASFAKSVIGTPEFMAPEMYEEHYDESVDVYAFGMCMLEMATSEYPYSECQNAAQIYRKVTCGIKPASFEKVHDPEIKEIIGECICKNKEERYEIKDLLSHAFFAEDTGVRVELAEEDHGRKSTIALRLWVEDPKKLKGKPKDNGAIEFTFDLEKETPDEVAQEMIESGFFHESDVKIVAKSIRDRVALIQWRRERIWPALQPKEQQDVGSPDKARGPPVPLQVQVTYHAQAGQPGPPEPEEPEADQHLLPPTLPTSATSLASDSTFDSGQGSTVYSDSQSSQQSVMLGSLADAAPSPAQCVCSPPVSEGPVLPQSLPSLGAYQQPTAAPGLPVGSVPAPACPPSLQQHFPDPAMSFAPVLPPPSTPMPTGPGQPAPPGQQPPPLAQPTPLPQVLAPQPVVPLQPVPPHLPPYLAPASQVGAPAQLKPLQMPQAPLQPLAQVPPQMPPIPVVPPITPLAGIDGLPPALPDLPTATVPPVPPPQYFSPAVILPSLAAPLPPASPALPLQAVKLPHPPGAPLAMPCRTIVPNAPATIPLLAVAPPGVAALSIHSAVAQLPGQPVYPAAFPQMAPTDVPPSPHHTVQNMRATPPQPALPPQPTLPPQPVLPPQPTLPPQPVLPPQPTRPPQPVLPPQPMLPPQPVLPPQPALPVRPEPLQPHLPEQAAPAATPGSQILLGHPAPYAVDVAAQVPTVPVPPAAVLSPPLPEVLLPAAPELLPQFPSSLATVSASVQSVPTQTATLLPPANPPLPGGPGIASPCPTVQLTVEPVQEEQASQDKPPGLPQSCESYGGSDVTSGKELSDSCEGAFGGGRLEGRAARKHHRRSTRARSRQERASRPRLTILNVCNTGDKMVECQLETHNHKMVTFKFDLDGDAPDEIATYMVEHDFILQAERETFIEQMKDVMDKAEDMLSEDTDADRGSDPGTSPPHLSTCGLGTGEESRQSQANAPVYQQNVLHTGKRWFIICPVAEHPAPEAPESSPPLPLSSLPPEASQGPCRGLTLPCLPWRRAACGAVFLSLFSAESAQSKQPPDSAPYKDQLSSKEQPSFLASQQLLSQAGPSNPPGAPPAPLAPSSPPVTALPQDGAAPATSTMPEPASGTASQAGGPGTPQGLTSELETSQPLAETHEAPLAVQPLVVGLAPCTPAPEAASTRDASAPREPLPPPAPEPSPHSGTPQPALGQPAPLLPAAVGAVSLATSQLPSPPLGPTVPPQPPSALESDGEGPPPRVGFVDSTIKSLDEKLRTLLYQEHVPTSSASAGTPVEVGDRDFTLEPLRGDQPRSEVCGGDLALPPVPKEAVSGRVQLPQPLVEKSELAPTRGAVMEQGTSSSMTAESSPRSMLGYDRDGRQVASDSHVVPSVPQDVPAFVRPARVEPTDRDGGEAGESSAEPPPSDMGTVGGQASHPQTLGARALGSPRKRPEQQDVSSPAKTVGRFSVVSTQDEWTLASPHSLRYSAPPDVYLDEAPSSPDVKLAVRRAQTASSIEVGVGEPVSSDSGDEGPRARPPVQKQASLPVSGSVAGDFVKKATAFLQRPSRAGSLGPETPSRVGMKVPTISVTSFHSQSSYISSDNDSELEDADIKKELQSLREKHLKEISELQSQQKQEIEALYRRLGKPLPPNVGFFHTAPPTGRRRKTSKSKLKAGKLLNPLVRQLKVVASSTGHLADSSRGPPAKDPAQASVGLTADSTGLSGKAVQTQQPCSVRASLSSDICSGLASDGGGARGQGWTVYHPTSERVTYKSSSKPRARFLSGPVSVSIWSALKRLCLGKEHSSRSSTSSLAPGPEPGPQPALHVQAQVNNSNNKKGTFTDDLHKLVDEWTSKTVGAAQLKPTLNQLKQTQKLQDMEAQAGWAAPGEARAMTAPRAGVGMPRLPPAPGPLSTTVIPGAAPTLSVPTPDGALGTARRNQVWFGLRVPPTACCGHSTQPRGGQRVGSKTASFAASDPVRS
UniProt P05771, 1-673 isoform P05771-2: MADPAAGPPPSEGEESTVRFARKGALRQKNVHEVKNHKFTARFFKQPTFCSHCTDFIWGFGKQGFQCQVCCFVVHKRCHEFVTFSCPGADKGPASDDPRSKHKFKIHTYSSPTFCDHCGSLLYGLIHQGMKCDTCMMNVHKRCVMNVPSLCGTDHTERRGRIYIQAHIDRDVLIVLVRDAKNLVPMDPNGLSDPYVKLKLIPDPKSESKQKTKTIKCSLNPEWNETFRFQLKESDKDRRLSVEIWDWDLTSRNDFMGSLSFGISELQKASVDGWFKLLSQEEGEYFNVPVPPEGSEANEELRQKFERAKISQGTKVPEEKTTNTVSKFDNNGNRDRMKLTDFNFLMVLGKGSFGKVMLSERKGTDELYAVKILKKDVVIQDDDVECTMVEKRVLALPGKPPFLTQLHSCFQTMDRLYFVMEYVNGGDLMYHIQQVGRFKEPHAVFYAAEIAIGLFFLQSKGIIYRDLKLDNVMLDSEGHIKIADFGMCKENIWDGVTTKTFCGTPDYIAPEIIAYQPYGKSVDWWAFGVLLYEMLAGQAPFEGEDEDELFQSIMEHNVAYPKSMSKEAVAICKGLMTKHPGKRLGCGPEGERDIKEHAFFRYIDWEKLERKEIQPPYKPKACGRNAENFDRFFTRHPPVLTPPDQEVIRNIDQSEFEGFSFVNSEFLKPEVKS
UniProt P50750, whole entry: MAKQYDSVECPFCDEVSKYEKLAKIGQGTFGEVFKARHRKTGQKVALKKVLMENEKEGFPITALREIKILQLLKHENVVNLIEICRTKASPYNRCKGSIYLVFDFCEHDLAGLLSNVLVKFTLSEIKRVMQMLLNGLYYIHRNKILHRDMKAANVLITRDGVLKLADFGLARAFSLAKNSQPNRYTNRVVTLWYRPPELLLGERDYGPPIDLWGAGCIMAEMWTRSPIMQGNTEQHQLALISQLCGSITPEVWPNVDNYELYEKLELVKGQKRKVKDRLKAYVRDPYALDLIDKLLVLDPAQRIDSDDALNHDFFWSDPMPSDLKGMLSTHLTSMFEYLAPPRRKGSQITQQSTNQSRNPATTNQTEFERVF
UniProt O15146, 24-869: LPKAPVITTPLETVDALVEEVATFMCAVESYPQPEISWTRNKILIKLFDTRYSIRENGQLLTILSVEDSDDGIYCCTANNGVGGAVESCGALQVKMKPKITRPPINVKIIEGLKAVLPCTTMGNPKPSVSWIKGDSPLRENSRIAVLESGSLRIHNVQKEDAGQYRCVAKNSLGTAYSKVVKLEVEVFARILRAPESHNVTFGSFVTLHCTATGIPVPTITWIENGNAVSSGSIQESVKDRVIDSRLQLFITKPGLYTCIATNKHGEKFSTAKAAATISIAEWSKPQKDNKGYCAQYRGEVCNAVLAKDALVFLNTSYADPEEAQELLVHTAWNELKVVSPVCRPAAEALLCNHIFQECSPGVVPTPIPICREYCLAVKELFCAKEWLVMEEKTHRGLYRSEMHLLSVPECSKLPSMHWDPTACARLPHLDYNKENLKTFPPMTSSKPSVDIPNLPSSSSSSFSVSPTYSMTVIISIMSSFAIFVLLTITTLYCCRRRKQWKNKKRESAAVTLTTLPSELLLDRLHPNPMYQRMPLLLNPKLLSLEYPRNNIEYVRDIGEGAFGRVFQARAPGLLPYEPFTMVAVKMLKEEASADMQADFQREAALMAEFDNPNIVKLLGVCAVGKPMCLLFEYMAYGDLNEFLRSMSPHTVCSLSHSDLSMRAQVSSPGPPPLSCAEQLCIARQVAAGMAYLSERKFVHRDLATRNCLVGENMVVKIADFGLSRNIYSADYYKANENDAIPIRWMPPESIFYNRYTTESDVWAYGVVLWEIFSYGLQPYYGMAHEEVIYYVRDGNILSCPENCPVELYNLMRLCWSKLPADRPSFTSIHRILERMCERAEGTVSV
UniProt Q16566: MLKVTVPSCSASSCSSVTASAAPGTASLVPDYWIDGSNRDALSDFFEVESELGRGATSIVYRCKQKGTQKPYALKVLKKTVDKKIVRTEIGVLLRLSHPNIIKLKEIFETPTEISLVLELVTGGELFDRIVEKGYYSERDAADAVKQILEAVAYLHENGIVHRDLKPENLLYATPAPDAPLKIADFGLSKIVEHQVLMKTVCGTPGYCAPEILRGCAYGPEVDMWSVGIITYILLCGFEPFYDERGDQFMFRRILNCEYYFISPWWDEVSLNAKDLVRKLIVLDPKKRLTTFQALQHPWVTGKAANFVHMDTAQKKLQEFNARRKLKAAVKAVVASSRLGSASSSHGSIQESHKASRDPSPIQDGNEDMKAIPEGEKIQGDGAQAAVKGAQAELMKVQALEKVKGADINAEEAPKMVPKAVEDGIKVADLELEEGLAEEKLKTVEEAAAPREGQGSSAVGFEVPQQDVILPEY

As to `COc1cc(-c2cncc(-c3ccc(N4CCN(C(C)C)CC4)cc3)c2C)cc(F)c1C(N)=O` [Compound 26b, 2-Fluoro-4-(5-(4-(4-isopropylpiperazin-1-yl)phenyl)-4-methylpyridin-3-yl)-6-methoxybenzamide], the “% enzyme activity” value on DMPK is given as 110.69%; on IKKb/IKBKB, 108.24%; at PKCb2, 103.20%; at MUSK it was 88.04%. Further, the remaining activity at 1 µM on FGFR2 was determined as 97.8%; at AKT3 it was 98.5%; at CDK3/cyclin E2, 85.1%; at PKG2/PRKG2 it was 95.7%; at SGK3/SGKL it was 86%; on WNK2, 98.9%. Further, the results for the remaining activity at 1 µM on CDK9/cyclin T2 and at CAMK4 were 102% and 104%, respectively.

The record behind these values is publication PMC8213057, “Targeting ALK2: An Open Science Approach to Developing Therapeutics for the Treatment of Diffuse Intrinsic Pontine Glioma” (Journal of Medicinal Chemistry, 2020).
